Laboratory results from publication PMC10941009, “Structural basis for specific DNA sequence recognition by the transcription factor NFIL3” (The Journal of Biological Chemistry, 2024).

Sequences of proteins named here, by UniProt entry; tags and fusion partners are left off. Residues count along the entry.
UniProt P35638, 88-162: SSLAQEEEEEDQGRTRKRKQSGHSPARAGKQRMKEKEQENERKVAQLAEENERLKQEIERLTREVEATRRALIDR
UniProt Q16649, 65-161: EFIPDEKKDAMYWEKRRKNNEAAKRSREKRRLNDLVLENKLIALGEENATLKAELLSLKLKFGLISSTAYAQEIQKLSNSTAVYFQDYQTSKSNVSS
UniProt Q16649, 65-161 N83A: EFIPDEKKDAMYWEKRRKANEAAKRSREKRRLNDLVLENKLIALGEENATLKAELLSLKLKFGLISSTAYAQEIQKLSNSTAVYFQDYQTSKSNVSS
UniProt Q16649, 65-161 R80A: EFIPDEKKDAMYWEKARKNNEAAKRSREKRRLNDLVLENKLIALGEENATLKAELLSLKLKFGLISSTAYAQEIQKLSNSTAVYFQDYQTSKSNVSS
UniProt Q16649, 65-161 R91A: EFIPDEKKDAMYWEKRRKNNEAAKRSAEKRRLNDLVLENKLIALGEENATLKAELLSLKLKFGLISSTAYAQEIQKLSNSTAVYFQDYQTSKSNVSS
UniProt Q16649, 65-161 R91C: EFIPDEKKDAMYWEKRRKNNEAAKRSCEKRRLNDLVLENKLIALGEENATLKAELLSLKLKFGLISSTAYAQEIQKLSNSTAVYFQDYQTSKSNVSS
UniProt Q16649, 65-161 R91H: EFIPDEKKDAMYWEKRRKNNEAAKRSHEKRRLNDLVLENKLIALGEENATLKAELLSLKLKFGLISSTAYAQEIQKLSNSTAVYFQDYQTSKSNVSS

Columns and labels:
C/EBPζ bZIP (human) = C/EBPζ bZIP (human) (UniProt P35638); assay: EMSA; details: 6-48 uM protein; EMSA: same buffer, 4 °C, 6% native gel in 0.5x TBE; recombinant protein; residues 88-162; protein details: His6-SUMO removed by TEV; label: 5' FAM
[1] = molecular target: NFIL3 bZIP (long) (human) (UniProt Q16649); assay: EMSA; details: positive control, 6-24 uM protein, construct span not stated; EMSA: same buffer, 4 °C, 6% native gel in 0.5x TBE; recombinant protein; residues 65-161; protein details: His6-SUMO removed by TEV; label: 5' FAM
NFIL3 N83A (human) = NFIL3 N83A (human) (UniProt Q16649); assay: ITC; details: negligible or very weak (NB or WB in figure); ITC: 20 mM Tris pH 7.5, 150 mM NaCl, 25 °C; recombinant protein; residues 65-161; protein details: His6-SUMO removed by TEV
NFIL3 R80A (human) = NFIL3 R80A (human) (UniProt Q16649); assay: ITC; details: negligible or very weak (NB or WB in figure); ITC: 20 mM Tris pH 7.5, 150 mM NaCl, 25 °C; recombinant protein; residues 65-161; protein details: His6-SUMO removed by TEV
NFIL3 R91A (human) = NFIL3 R91A (human) (UniProt Q16649); assay: ITC; details: negligible or very weak (NB or WB in figure); ITC: 20 mM Tris pH 7.5, 150 mM NaCl, 25 °C; recombinant protein; residues 65-161; protein details: His6-SUMO removed by TEV
NFIL3 R91C (human) = NFIL3 R91C (human) (UniProt Q16649); assay: ITC; details: NB, no Kd given; ITC: 20 mM Tris pH 7.5, 150 mM NaCl, 25 °C; recombinant protein; residues 65-161; protein details: His6-SUMO removed by TEV
NFIL3 R91H (human) = NFIL3 R91H (human) (UniProt Q16649); assay: ITC; details: NB, no Kd given; ITC: 20 mM Tris pH 7.5, 150 mM NaCl, 25 °C; recombinant protein; residues 65-161; protein details: His6-SUMO removed by TEV

CATTACGTAATG (double strand) [FAM-TTACGTAA]
binding result (C/EBPζ bZIP (human)): no binding
binding result [1]: binds

CATTACGTAATG (double strand)
binding result (NFIL3 N83A (human)): binds more weakly
binding result (NFIL3 R80A (human)): binds more weakly
binding result (NFIL3 R91A (human)): binds more weakly
binding result (NFIL3 R91C (human)): no binding
binding result (NFIL3 R91H (human)): no binding

For some of these results: Negatives hold for the conditions tested. For some of these results: At least one verdict rests on a figure or table, not on a statement of the authors. For some of these results: Weaker means in comparison with the reference protein, sequence or condition of that experiment. For some of these results: The exact form of at least one protein or probe is not confirmed.
